Measurements reported in doi:10.1101/2025.11.03.686288.
Read-outs that look alike come from different tables or passages of the source. Results are given in words; binding and its absence hold for the method and conditions named. Some results given as binding are weak or reduced against the parent protein; the word gives no strength. Where a sequence is shown, tags or fusion partners need not be part of it.

Key:
[1] = molecular target: T1, GAL4 DNA-binding domain fused to ScPCS60 (S. cerevisiae) (UniProt P38137); assay: two-hybrid
T1 sequence: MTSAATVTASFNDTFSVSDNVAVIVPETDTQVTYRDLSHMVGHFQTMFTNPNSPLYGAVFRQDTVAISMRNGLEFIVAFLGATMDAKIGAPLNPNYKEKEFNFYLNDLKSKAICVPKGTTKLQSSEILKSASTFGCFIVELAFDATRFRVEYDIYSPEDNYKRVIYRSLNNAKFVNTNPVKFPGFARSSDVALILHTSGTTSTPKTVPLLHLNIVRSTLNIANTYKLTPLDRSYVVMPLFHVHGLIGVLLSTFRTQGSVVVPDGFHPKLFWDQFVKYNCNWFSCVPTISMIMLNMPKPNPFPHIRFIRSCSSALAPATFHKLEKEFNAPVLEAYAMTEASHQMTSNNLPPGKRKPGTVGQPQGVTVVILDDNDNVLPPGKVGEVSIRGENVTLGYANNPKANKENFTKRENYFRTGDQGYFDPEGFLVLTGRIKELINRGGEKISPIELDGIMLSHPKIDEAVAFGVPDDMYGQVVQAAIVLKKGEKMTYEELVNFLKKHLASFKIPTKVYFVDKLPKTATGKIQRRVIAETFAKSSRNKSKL

[2] = molecular target: T1, GAL4 DNA-binding domain fused to ScPCS60 (S. cerevisiae); assay: two-hybrid; remark: listed apart in the source

B1: GAL4 activation domain fused to ScPEX5 (protein, UniProt P35056 1-612)
chain: MDVGSCSVGNNPLAQLHKHTQQNKSLQFNQKNNGRLNESPLQGTNKPGISEAFISNVNAISQENMANMQRFINGEPLIDDKRRMEIGPSSGRLPPFSNVHSLQTSANPTQIKGVNDISHWSQEFQGSNSIQNRNADTGNSEKAWQRGSTTASSRFQYPNTMMNNYAYASMNSLSGSRLQSPAFMNQQQSGRSKEGVNEQEQQPWTDQFEKLEKEVSENLDINDEIEKEENVSEVEQNKPETVEKEEGVYGDQYQSDFQEVWDSIHKDAEEVLPSELVNDDLNLGEDYLKYLGGRVNGNIEYAFQSNNEYFNNPNAYKIGCLLMENGAKLSEAALAFEAAVKEKPDHVDAWLRLGLVQTQNEKELNGISALEECLKLDPKNLEAMKTLAISYINEGYDMSAFTMLDKWAETKYPEIWSRIKQQDDKFQKEKGFTHIDMNAHITKQFLQLANNLSTIDPEIQLCLGLLFYTKDDFDKTIDCFESALRVNPNDELMWNRLGASLANSNRSEEAIQAYHRALQLKPSFVRARYNLAVSSMNIGCFKEAAGYLLSVLSMHEVNTNNKKGDVGSLLNTYNDTVIETLKRVFIAMNRDDLLQEVKPGMDLKRFKGEFSF
Question: With B1 as the binder, how does the binding [1] read?
Answer: binds

Question: What about the binding [2] of the same binder?
Answer: binds
